This note sets out measurements from publication PMC2614481.

By UniProt entry, the sequences of proteins in these tests, tags left out.
UniProt Q12432: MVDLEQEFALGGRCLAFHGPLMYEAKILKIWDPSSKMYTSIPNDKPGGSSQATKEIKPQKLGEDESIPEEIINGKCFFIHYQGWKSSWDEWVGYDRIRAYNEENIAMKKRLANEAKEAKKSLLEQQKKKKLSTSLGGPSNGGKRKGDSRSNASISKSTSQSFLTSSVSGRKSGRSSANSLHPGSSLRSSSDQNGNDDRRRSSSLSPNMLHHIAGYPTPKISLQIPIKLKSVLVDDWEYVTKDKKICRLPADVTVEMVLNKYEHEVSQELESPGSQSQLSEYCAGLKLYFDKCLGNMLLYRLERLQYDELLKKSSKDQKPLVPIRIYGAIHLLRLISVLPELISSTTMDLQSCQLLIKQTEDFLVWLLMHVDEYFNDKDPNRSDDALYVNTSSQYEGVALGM

The assay deals with T1, Sc_Rpd3p (S. cerevisiae) (UniProt P32561).
T1 sequence: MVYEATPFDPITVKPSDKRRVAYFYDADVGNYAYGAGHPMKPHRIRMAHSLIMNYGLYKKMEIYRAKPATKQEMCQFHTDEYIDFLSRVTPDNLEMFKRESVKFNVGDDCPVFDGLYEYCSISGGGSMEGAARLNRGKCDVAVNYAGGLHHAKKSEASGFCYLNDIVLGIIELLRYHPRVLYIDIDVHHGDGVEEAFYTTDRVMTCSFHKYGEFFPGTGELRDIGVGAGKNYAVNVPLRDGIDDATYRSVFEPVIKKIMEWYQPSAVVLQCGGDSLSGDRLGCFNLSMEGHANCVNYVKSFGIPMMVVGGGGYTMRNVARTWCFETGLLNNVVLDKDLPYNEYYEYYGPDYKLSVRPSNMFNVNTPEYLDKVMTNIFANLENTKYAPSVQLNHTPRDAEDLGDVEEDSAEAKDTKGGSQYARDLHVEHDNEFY
The assay can be described thus: affinity purification with mass spectrometry; TAP of baits TAP-tagged at their genes from S. cerevisiae extracts; eluates on 6-18% gels, Coomassie, bands and slices identified by MALDI peptide mapping and LC-MS/MS; common background removed, A-index cut-off 1.75.

These are yes or no findings as the source states them, for the method shown. In cells and extracts the contact can be indirect. A yes stands for co-enrichment or nearness to the bait. Other partners may have been found.

In the case of Sc_Eaf3p (from UniProt Q12432 1-401), the binding entry is “binds”.
